Measured values reported in paper PMC1523230, “Structural Organization of the 19S Proteasome Lid: Insights from MS of Intact Complexes” (PLoS Biology, 2006).
No constants are given. Whether binding was seen depends on the method and setting. Some binding calls cover weakened binding; strength is not graded here.

T1: Rpn11^H12 (S. cerevisiae), P43588
T1 chain: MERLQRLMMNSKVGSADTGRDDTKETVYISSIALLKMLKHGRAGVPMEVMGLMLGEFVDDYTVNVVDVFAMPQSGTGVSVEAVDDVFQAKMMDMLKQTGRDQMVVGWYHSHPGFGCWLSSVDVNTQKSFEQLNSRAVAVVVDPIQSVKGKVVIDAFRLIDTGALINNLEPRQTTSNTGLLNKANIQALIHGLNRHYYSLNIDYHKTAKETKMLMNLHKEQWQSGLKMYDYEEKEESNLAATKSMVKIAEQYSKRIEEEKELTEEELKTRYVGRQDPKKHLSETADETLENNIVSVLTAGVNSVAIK

B1: Rpn9, Q04062 1-393 (protein)
chain: MFNNHEIDTILSTLRMEADPSLHPLFEQFEKFYEEKLWFQLSESLTKFFDDAKSTPLRLRLYDNFVSKFYDKINQLSVVKYLLASLKDSKDFDESLKYLDDLKAQFQELDSKKQRNNGSKDHGDGILLIDSEIARTYLLKNDLVKARDLLDDLEKTLDKKDSIPLRITNSFYSTNSQYFKFKNDFNSFYYTSLLYLSTLEPSTSITLAERQQLAYDLSISALLGDKIYNFGELLHHPIMETIVNDSNYDWLFQLLNALTVGDFDKFDSLIKVQISKIPILAQHESFLRQKICLMTLIETVFVKNIRMLSFEDISKATHLPKDNVEHLVMRAISLGLLKGSIDQVNELVTISWVQPRIISGDQITKMKDRLVEWNDQVEKLGKKMEARGQSIWV
B2: Rpn6, Q12377 1-434 (protein)
chain: MSLPGSKLEEARRLVNEKQYNEAEQVYLSLLDKDSSQSSAAAGASVDDKRRNEQETSILELGQLYVTMGAKDKLREFIPHSTEYMMQFAKSKTVKVLKTLIEKFEQVPDSLDDQIFVCEKSIEFAKREKRVFLKHSLSIKLATLHYQKKQYKDSLALINDLLREFKKLDDKPSLVDVHLLESKVYHKLRNLAKSKASLTAARTAANSIYCPTQTVAELDLMSGILHCEDKDYKTAFSYFFESFESYHNLTTHNSYEKACQVLKYMLLSKIMLNLIDDVKNILNAKYTKETYQSRGIDAMKAVAEAYNNRSLLDFNTALKQYEKELMGDELTRSHFNALYDTLLESNLCKIIEPFECVEISHISKIIGLDTQQVEGKLSQMILDKIFYGVLDQGNGWLYVYETPNQDATYDSALELVGQLNKVVDQLFEKASVLY
B3: Rpn12, P32496 1-274 (protein)
chain: MPSLAELTKSLSIAFENGDYAACEKLLPPIKIELIKNNLLIPDLSIQNDIYLNDLMITKRILEVGALASIQTFNFDSFENYFNQLKPYYFSNNHKLSESDKKSKLISLYLLNLLSQNNTTKFHSELQYLDKHIKNLEDDSLLSYPIKLDRWLMEGSYQKAWDLLQSGSQNISEFDSFTDILKSAIRDEIAKNTELSYDFLPLSNIKALLFFNNEKETEKFALERNWPIVNSKVYFNNQSKEKADYEDEMMHEEDQKTNIIEKAMDYAISIENIV

Target: T1, Rpn11^H12 (S. cerevisiae), P43588
Experiment: native MS; intact endogenous 19S lid purified through Rpn11^H12, buffer exchanged into 1 M ammonium acetate, nano-electrospray on a high-mass Q-TOF; MS/MS of the 47+ charge state at 100 and 120 V; both purified
Details: remark: other sources report otherwise

binding | Binder
binds | B1
binds | B2
binds | B3
